In PubChem BioAssay:
The inconclusive results got no clear call from the source; some entries with a clear call stand among them for comparison. Where the call is inconclusive, the potency comes from a doubtful curve fit. Activity calls are given as the source filed them. Cut-off not given; nearly all actives show AC50 up to about 27 µM.

Assay: growth inhibition of DIPG glioma cells, dose response, cell-based, JHH-DIPG-1, MIPE4.0, CellTiter-Glo, qHTS (AID 1347062);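 on AC50: cells exposed to compound for two days before readout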
Conditions: JHH-DIPG-1 viability, CellTiter-Glo ATP luminescence

Q: Which AC50 does the source give for `CO[C@@H]1C(N(C)C(=O)c2ccccc2)C[C@H]2O[C@]1(C)n1c3ccccc3c3c4c(c5c6ccccc6n2c5c31)C(=O)NC4=O` (stereo not given in full) here?
A: inconclusive: 0.743 µM [cytotoxic]

Q: With `CN(C)c1ccc(-c2nc3ncc(Cl)c(N4CCN(CC(=O)Nc5nccs5)CC4)c3[nH]2)cc1` as the compound, how does the AC50 read?
A: inconclusive: 2.35 µM [cytotoxic]

Q: Which AC50 does the source give for `O=C(CCCCCCC(=O)Nc1ccc([C@H]2O[C@@H](CSc3nc(-c4ccccc4)c(-c4ccccc4)o3)C[C@@H](c3ccc(CO)cc3)O2)cc1)NO` here?
A: inconclusive: 13.2 µM [cytotoxic]

Q: Which AC50 does the source give for `CC(C)C[C@H](NC(=O)CNC(=O)c1cc(Cl)ccc1Cl)B1OC(=O)CC(CC(=O)O)(C(=O)O)O1` (stereo not given in full) here?
A: active: 0.132 µM

Q: For `CO[C@H]1C[C@@H]2CC[C@@H](C)[C@@](O)(O2)C(=O)C(=O)N2CCCC[C@H]2C(=O)O[C@H]([C@H](C)C[C@@H]2CC[C@@H](OC(=O)C(C)(CO)CO)[C@H](OC)C2)CC(=O)[C@H](C)/C=C(\C)[C@@H](O)[C@@H](OC)C(=O)[C@H](C)C[C@H](C)/C=C/C=C/C=C/1C`, which AC50 is on record?
A: inconclusive: 33.2 µM [cytotoxic]

Q: Which AC50 does the source give for `CC[C@H](CC#N)OC(=O)N[C@@H](C)c1cccc(NC(=O)Nc2ccc(-c3cnco3)c(OC)c2)c1` here?
A: inconclusive: 0.418 µM [cytotoxic]

Q: With `CCNC(=O)Nc1ccc(-c2nc3c(c(N4CCOC[C@@H]4C)n2)CCN(C2COC2)C3)cc1` as the compound, how does the AC50 read?
A: inconclusive: 0.743 µM [cytotoxic]

Q: For `CC(C)(O)CC(=O)NCCn1ccc2ncnc(Nc3ccc(Oc4cccc(C(F)(F)F)c4)c(Cl)c3)c21`, which AC50 is on record?
A: inconclusive: 14.8 µM [cytotoxic]

Q: With `CN(C)c1ccc(Nc2nc(N)n(C(=O)c3c(F)cccc3F)n2)cc1` as the compound, how does the AC50 read?
A: inconclusive: 37.2 µM [cytotoxic]

Q: With `CCN(CCO)CCCOc1ccc2c(Nc3cc(CC(=O)Nc4cccc(F)c4)[nH]n3)ncnc2c1` as the compound, how does the outcome read?
A: inactive

Q: Which AC50 does the source give for `O=C(Nc1cccc(Cl)c1)Nc1ncc(CCNc2ncnc3ccsc23)s1` here?
A: inconclusive: 16.6 µM [cytotoxic]

Q: With `Cc1cccc(-c2[nH]c(C(C)(C)C)nc2-c2ccc3c(c2)OCO3)n1` as the compound, how does the AC50 read?
A: inconclusive: 3.32 µM [cytotoxic]

Q: For `CC[C@@]1(O)C[C@H](O[C@H]2C[C@H](N(C)C)[C@H](O[C@H]3C[C@H](O)[C@H](O[C@H]4CCC(=O)[C@H](C)O4)[C@H](C)O3)[C@H](C)O2)c2c(cc3c(c2O)C(=O)c2c(O)cccc2C3=O)[C@H]1C(=O)OC`, which AC50 is on record?
A: active: 0.332 µM

Q: For `CC(=O)SCC(Cc1ccccc1)C(=O)NCC(=O)OCc1ccccc1` (stereo not given), which AC50 is on record?
A: active: 0.469 µM

Q: With `CCOc1ccc(Nc2nc(-c3c(C)nc4ccccn34)cs2)cc1` as the compound, how does the AC50 read?
A: active: 16.6 µM

Q: For `COC(=O)Nc1nc2ccc(C(=O)c3ccccc3)cc2[nH]1`, which AC50 is on record?
A: inconclusive: 1.48 µM [cytotoxic]

Q: For `C=C1C(=O)OC2/C=C(/C)CC/C=C(/C)CCC12` (stereo not given), which AC50 is on record?
A: inconclusive: 20.9 µM [cytotoxic]

Q: For `O=c1[nH]nc(Sc2ncc([N+](=O)[O-])s2)n1-c1ccc2c(c1)OCCO2`, which AC50 is on record?
A: active: 5.26 µM

Q: With `CC(C)(C)NCC(O)c1ccc(O)c(CO)c1` (stereo not given) as the compound, how does the outcome read?
A: inactive

Q: With `O=C(O)c1ccc2c(c1)nc(Nc1cccc(Cl)c1)c1ccncc12` as the compound, how does the AC50 read?
A: active: 16.6 µM

Q: For `CS(=O)(=O)N1CCc2c(-c3cnc(N)nc3)nc(N3CCOCC3)nc21`, which AC50 is on record?
A: inconclusive: 0.526 µM [cytotoxic]

Q: For `COc1cc2ncnc(Nc3cccc(Cl)c3)c2cc1OC`, which AC50 is on record?
A: inconclusive: 0.0166 µM [cytotoxic]

Q: With `CC1(C)CCC2=C(O1)c1ccccc1C(=O)C2=O` as the compound, how does the AC50 read?
A: inconclusive: 29.6 µM [cytotoxic]

Q: For `CCCCc1ccc2nc(NC(=O)OC)[nH]c2c1`, which AC50 is on record?
A: inconclusive: 0.0296 µM [cytotoxic]

Q: Which AC50 does the source give for `CN1c2ccccc2C(=O)N2CCc3c([nH]c4ccccc34)C21` (stereo not given) here?
A: inconclusive: 20.9 µM [cytotoxic]

Q: For `CN(C)c1nc(N(C)C)nc(N(C)C)n1`, which outcome is on record?
A: inactive

Q: For `O=C(NCCCNc1nc(Nc2cccc(NC(=O)N3CCCC3)c2)ncc1I)c1cccs1`, which AC50 is on record?
A: active: 23.5 µM

Q: Which AC50 does the source give for `CCC(C)SSc1ncc[nH]1` (stereo not given) here?
A: active: 23.5 µM

Q: Which AC50 does the source give for `O=C1[C@H](Cc2ccc(O)cc2)N2C(=O)CCN(C(=O)NCc3ccccc3)[C@H]2CN1Cc1cccc2ccccc12` here?
A: inconclusive: 5.9 µM [cytotoxic]

Q: For `CC(C)C[C@@H](N)[C@H](O)C(=O)N[C@H](C(=O)N[C@H](C(=O)N[C@@H](CC(=O)O)C(=O)O)C(C)C)C(C)C`, which AC50 is on record?
A: inconclusive: 2.96 µM [cytotoxic]

Q: Which AC50 does the source give for `Cc1c[nH]c(/C=C2\C(=O)Nc3ccccc32)c1CCC(=O)O` here?
A: inconclusive: 3.72 µM [cytotoxic]

Q: Which outcome does the source give for `Clc1ccc(COC(Cn2ccnc2)c2ccc(Cl)cc2Cl)c(Cl)c1` (stereo not given) here?
A: inactive

Q: Which outcome does the source give for `CC1(C)O[C@@H]2C[C@H]3[C@@H]4CCC5=CC(=O)C=C[C@]5(C)[C@H]4[C@@H](O)C[C@]3(C)[C@]2(C(=O)CO)O1` here?
A: inactive

Q: Which AC50 does the source give for `CCCCc1nc2cc(/C=C/C(=O)NO)ccc2n1CCN(CC)CC` here?
A: active: 0.296 µM

Q: Which outcome does the source give for `COc1ccc(-c2oc3c(CC=C(C)C)c(O)cc(O)c3c(=O)c2O)cc1` here?
A: inactive

Q: For `COc1cc(F)c(F)c(Nc2ccc(I)cc2F)c1NS(=O)(=O)C1(C[C@H](O)CO)CC1`, which AC50 is on record?
A: inconclusive: 18.7 µM [cytotoxic]

Q: Which outcome does the source give for `CN1CCC(=C2c3ccccc3CC(=O)c3sccc32)CC1` here?
A: inactive

Q: With `OC(c1cc(C(F)(F)F)nc2c(C(F)(F)F)cccc12)C1CCCCN1` (stereo not given) as the compound, how does the AC50 read?
A: inconclusive: 37.2 µM [cytotoxic]

Q: Which AC50 does the source give for `CN(C)C/C=C/C(=O)Nc1cc2c(Nc3ccc(F)c(Cl)c3)ncnc2cc1O[C@H]1CCOC1` here?
A: active: 16.6 µM

Q: Which AC50 does the source give for `Cc1cc(C(=O)NOCCO)c(Nc2ccc(I)cc2F)n(C)c1=O` here?
A: active: 0.105 µM
